Source: PubChem BioAssay AID1259424 (University of Nebraska Medical Center, 2018)
Here is an unselected part of about 14,000 reagents. 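Higher correlation or smaller distance means closer resemblance to KSR1 loss; control wells, including KSR1 knockdowns, recur on many plates.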 Further read-outs or replicates are left out here. No sequences are given here. The record does not give: the time to read-out.

Aim: 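Rank knockdowns across the genome by resemblance to the KSR1 depletion profile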 (primary screen)
System: human HCT116 colon cancer cells
Reagent: siRNA pool against human genes, 50 nM
Measurement: 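Six signature mRNAs by branched-DNA multiplex assay, scaled to two housekeeping genes and non-targeting median, log2; matched to mean KSR1 knockdown profile by Pearson correlation and euclidean distance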
Scale: mean correlation with KSR1 profile and KSR1 correlation: higher = expression change more like KSR1 knockdown; mean distance from KSR1 profile: higher = expression change less like KSR1 knockdown

Target gene	mean correlation with KSR1 profile	mean distance from KSR1 profile	KSR1 correlation, replicate 1
TEKT1 (tektin 1)	-0.0625	1.99	0.112
TTPA (alpha tocopherol transfer protein)	-0.247	1.88	-0.421
CDC42BPB (CDC42 binding protein kinase beta)	0.854	0.934	0.617
TWF2 (twinfilin actin binding protein 2)	-0.3	1.95	0.435
IL21 (interleukin 21)	0.191	1.22	0.203
KDM4D (lysine demethylase 4D)	-0.784	2.34	-0.78
IL33R (interleukin 33 receptor)	-0.016	1.89	-0.0474
MPDZ (multiple PDZ domain crumbs cell polarity complex component)	-0.417	1.85	-0.497
ARHGAP10 (Rho GTPase activating protein 10)	0.868	0.831	0.878
HTR6 (5-hydroxytryptamine receptor 6)	0.766	1.51	0.821
GAR1 (GAR1 ribonucleoprotein)	0.134	1.16	0.0925
LYZ (lysozyme)	-0.468	2.01	-0.387
SNRPB (small nuclear ribonucleoprotein polypeptides B and B1)	-0.585	2.94	-0.604
TXNDC15 (thioredoxin domain containing 15)	0.775	1.81	0.774
ZNF93 (zinc finger protein 93)	0.0576	1.71	-0.197
MRPS23 (mitochondrial ribosomal protein S23)	0.198	2.48	0.338
AIMP2	-0.043	1.2	-0.0849
LSG1 (large 60S subunit nuclear export GTPase 1)	0.246	1.08	0.309
ZC3HC1 (zinc finger C3HC-type containing 1)	-0.344	2.12	-0.473
POLH (DNA polymerase eta)	-0.117	3.06	-0.16
CIITA (class II major histocompatibility complex transactivator)	-0.555	2.4	-0.789
ABCD4 (ATP binding cassette subfamily D member 4)	0.173	0.847	0.146
RAC3 (Rac family small GTPase 3)	-0.161	2.11	-0.27
CSGALNACT2 (chondroitin sulfate N-acetylgalactosaminyltransferase 2)	-0.593	2.23	-0.532
S100A6 (S100 calcium binding protein A6)	-0.184	2.18	-0.126
KIAA1191	0.23	1.52	0.18
DNPH1 (2'-deoxynucleoside 5'-phosphate N-hydrolase 1)	-0.637	2.82	-0.695
SMARCB1 (SWI/SNF related BAF chromatin remodeling complex subunit B1)	-0.347	3.84	-0.478
APIP (APAF1 interacting protein)	-0.0582	1.21	-0.102
TNFAIP1 (TNF alpha induced protein 1)	0.232	1.43	0.00934
MSANTD2 (Myb/SANT DNA binding domain containing 2)	0.497	2.36	0.536
RNF135 (ring finger protein 135)	0.453	2.91	0.254
BRPF3 (bromodomain and PHD finger containing 3)	0.29	1.27	-0.109
FGL2 (fibrinogen like 2)	-0.398	2.14	-0.268
HNRNPA2B1 (heterogeneous nuclear ribonucleoprotein A2/B1)	-0.192	2.9	-0.272
PARD6B (par-6 family cell polarity regulator beta)	-0.0389	1.94	0.0929
ACBD6 (acyl-CoA binding domain containing 6)	0.0507	1.07	0.189
S1PR2 (sphingosine-1-phosphate receptor 2)	0.709	1.28	0.694
DNAI7 (dynein axonemal intermediate chain 7)	0.114	3.01	-0.206
PFN2 (profilin 2)	0.403	2.18	0.456
PHTF1 (putative homeodomain transcription factor 1)	-0.238	2.71	0.0691
CNTRL (centriolin)	-0.0566	1.58	-0.0689
SERPINC1 (serpin family C member 1)	0.427	1.74	0.574
UFD1 (ubiquitin recognition factor in ER associated degradation 1)	0.0223	3.05	0.0754
NUMA1 (nuclear mitotic apparatus protein 1)	-0.856	2.06	-0.337
SLC22A7	-0.392	3.22	-0.0202
SRD5A3 (steroid 5 alpha-reductase 3)	0.584	1.13	0.69
MARVELD1 (MARVEL domain containing 1)	0.819	1.7	0.688
TUBAL3 (tubulin alpha like 3)	0.667	1.55	0.678
CEP70 (centrosomal protein 70)	0.775	1.41	0.307
SEC22A (SEC22 homolog A, vesicle trafficking protein)	0.171	1.82	0.0378
ZNF221 (zinc finger protein 221)	-0.242	3.74	-0.268
ABITRAM (actin binding transcription modulator)	-0.0845	1.12	-0.147
PTMA (prothymosin alpha)	-0.444	2.07	-0.516
ZNF629 (zinc finger protein 629)	0.0445	2.73	0.0932
NSF (N-ethylmaleimide sensitive factor, vesicle fusing ATPase)	-0.298	2.82	-0.1
HPCA (hippocalcin)	0.167	2.26	0.000773
ZNF461 (zinc finger protein 461)	-0.167	1.67	-0.251
SZRD1 (SUZ RNA binding domain containing 1)	-0.387	3.26	-0.106
ADRB1 (adrenoceptor beta 1)	0.624	1.33	0.609
PISD (phosphatidylserine decarboxylase)	0.232	5.53	0.404
ZBTB39 (zinc finger and BTB domain containing 39)	0.181	2.23	0.124
IFT54 (intraflagellar transport 54)	-0.269	1.2	-0.242
